Paper PMC10450579, “A biophysical framework for double-drugging kinases” (Proceedings of the National Academy of Sciences of the …, 2023)
Results are given in words; binding and its absence hold for the method and conditions named. Binding can be weak; no strength is given.

By UniProt entry, the sequences of proteins in these tests, tags left out. Where a name states a change or a piece, a line headed by the entry shows the natural chain unless it says otherwise.
UniProt P00519: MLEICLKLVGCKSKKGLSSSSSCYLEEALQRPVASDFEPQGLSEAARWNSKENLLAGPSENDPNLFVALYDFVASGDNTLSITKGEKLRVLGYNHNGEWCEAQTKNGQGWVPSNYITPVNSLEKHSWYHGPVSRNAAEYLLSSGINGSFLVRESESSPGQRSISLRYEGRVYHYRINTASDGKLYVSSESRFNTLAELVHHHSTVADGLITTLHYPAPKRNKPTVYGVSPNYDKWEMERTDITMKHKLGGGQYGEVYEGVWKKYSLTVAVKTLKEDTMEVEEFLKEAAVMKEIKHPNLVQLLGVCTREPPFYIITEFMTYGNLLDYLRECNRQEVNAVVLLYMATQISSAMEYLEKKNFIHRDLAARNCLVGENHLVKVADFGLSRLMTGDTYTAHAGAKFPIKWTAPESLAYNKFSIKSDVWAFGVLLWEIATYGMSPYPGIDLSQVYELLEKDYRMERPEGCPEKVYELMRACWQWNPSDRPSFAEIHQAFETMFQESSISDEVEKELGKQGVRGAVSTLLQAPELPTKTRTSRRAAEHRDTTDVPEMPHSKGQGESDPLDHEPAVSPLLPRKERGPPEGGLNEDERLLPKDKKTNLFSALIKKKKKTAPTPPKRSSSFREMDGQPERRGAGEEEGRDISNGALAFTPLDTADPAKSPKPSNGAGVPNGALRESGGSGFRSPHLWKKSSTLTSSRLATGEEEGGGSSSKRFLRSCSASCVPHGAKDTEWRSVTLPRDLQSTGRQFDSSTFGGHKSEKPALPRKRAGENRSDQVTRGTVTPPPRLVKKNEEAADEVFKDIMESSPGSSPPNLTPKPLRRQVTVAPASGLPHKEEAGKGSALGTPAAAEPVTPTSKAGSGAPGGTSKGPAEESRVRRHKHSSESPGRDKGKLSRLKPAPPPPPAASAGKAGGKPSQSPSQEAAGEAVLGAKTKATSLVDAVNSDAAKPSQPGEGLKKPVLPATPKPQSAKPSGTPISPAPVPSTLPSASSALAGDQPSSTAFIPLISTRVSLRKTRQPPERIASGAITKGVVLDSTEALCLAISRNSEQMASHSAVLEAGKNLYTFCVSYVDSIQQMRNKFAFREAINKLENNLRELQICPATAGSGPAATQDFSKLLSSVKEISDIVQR

Key:
[1] = biological target: AblKD (Abl kinase domain, residues 229 to 510) (UniProt P00519); assay: ITC; competitive replacement ITC: N-Myr peptide as the weak-binding ligand replaced by asciminib; 50 mM Tris-HCl, 500 mM NaCl, 1 mM TCEP, pH 8.0, 5% DMSO, 25 °C; both purified
[2] = biological target: SH3-SH2-KD Abl (Abl_(64–510)) (UniProt P00519); assay: as above

binding [1]: binds weakly | binding [2]: binds weakly
B1: N-Myr peptide (Myr-…) (peptide)
peptide: GQQPGKVLGDQR
modifications: myristoyl (Myr-) on the N-terminus
